Measured values: BindingDB's records for patent US9144538 (The Procter & Gamble, 2015)

By UniProt entry, the sequences of proteins in these tests, tags left out.
UniProt P08684, whole entry: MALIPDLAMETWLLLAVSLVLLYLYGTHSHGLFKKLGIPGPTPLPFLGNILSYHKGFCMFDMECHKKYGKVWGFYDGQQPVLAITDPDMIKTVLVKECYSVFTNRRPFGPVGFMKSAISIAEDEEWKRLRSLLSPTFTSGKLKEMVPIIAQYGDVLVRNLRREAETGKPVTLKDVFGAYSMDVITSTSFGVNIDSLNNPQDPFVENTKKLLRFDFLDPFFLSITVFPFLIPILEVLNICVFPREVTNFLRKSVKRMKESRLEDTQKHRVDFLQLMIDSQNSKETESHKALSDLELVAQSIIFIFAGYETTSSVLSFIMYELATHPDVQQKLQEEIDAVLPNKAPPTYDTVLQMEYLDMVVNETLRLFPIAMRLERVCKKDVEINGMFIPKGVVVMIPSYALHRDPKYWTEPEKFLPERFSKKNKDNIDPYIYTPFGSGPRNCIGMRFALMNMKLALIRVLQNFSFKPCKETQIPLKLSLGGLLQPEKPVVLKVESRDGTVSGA

Biological target: CYP3A4 (Homo sapiens, UniProt P08684)
Experiment: In vitro CYP3A4 Inhibition Assay
Excerpt: Cytochrome P450 is a large and diverse group of enzymes that catalyze the oxidation of organic substances. […] Applicant evaluated the potential RAMBA activity of several azoles using pig liver microsomes, a rich source of CYP activity, comprising many different CYP 450 isoforms. […] As understanding in this area has progressed, a more specific CYP inhibition assay can be used to provide better predictivity of activity in human skin. Nevertheless, this assay may still be used as a general predictor of overall CYP activity.

Clc1ccc(CO[C@@H](Cn2ccnc2)c2ccc(Cl)cc2Cl)c(Cl)c1 [US9144538, Miconazole Nitrate]
IC50: 5 µM
